The results in this text go back to patent publication US11464749B2, “Bismuth-thiol compositions and methods of use” (Microbion Corporation, priority 2018, dated 2022).

In the data set the test system is fully differentiated human airway epithelium (MUCILAIR™). The data set is described as follows: Acute toxicity on […] (LDH release, TEER, morphology). Type of data set: cell-based. How it is done:
Controlled in vitro evaluation of BisEDT, with respect to potential cytotoxicity on fully differentiated human airway epithelium was carried out. Both solubilized and solid (powder/particulate) forms of BisEDT were evaluated for cytotoxicity by Epithelix, a contract research organization (CRO) specializing in this form of cytotoxicity evaluation utilizing a proprietary, in vitro fully differentiated human airway epithelium test system ([…]™) The […]™ system facilitated evaluation of cytotoxicity through both LDH release (from the culture medium side) and trans-epithelial electrical resistance (TEER) from the apical/air-exposed side as well as pre- and post-exposure microscopic examination for morphological changes (FIG. 13).
The assay system used in this study is Epithelix's proprietary technology […]™ […]™ is a fully differentiated and ready-to-use 3D model of human airway epithelium, constituted with primary human epithelial cells freshly isolated from nasal, tracheal or bronchial biopsies. […]™ (FIG. 24), is not only morphologically and functionally differentiated, but can also be maintained in a homeostatic state for a long period of time (Huang et al., 2009).
[…]™ is composed of basal cells, ciliated cells and mucus cells. […] A large panel of cytokines, chemokines and metalloproteinases has been detected in […]™ (e.g. IL-8, IL-6, GM-CSF, MMP-9, GRO-α). […]
During the study, inserts were maintained in a CO2 incubator (37° C., 5% CO2, 100% humidity). The following end-points were determined: • Tissue integrity monitoring: Trans-Epithelial Electrical Resistance (TEER) measurement (quantitative) at D0, D1 and D2. • Cytotoxicity monitoring: LDH test (quantitative) at D0, D1 and D2. • Morphology: cellular and tissue integrity examined under contrast microscope at D0, D1 and D2.
Three days before the experiment, the following quality controls were performed on each epithelium: • Washing: inserts were washed with 200 μl of […]™ culture medium. […] The presence of mucus was detected by the refractive aspect of the apical surface. […]
Background: Release of lactate dehydrogenase indicates damage to the cell membrane.

Regarding `C1C[S][Bi]([S]CC[S][Bi]2[S]CC[S]2)[S]1` [BisEDT, bismuth-1,2-ethanedithiol], the “highest non-toxic concentrations relative to MIC” value (particulate or solubilized BisEDT) is reported as 25-345 fold. Besides, for the setting “solubilized BisEDT”, the “highest tested concentration (20.83 μg/mL) relative to MIC for M. avium” value is on record as 2.5-10 fold and the “highest tested concentration (20.83 ug/mL) relative to MICs against most tested CF bacterial isolates” value was 20-347 fold.
